Where two headings read alike, the source gives them in different places. No constants are given. Whether binding was seen depends on the method and setting. Binding seen in cells or lysates may run through a third protein. A yes stands for co-enrichment or nearness to the bait. Other partners may have been found. For some assays here: No binding means not detected with the bait. For some assays here: Sequences can lack the tags named with a protein. Blank lines part the entries; values can stand above or below the molecule they belong to.
How the values were obtained:
Experiment in all cases: affinity purification with mass spectrometry
FLAG-tagged PARK7 [1] = target: FLAG-tagged PARK7 (UniProt Q99497)
[2] = target: T1, FLAG-tagged TRAP1 (tumor necrosis factor receptor-associated protein 1) (UniProt Q12931)
T1 sequence: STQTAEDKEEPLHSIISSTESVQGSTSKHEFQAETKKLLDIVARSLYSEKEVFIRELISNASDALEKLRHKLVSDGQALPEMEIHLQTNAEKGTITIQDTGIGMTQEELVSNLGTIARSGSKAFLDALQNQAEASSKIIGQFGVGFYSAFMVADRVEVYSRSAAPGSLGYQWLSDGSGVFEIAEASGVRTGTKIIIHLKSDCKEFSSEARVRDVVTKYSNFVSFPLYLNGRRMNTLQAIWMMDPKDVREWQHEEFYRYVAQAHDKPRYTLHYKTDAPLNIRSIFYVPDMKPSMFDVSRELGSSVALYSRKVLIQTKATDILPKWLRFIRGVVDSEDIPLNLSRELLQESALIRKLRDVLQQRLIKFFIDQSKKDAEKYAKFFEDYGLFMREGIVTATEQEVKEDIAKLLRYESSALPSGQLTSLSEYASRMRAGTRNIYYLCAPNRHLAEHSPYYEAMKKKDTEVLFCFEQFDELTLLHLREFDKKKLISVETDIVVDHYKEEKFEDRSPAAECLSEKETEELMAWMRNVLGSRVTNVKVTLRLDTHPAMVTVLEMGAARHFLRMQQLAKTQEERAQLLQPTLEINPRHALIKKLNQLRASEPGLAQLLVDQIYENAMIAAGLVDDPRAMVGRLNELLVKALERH

Chains of the proteins cited; added tags and fusions are not shown. Residues count along the entry.
UniProt Q99497: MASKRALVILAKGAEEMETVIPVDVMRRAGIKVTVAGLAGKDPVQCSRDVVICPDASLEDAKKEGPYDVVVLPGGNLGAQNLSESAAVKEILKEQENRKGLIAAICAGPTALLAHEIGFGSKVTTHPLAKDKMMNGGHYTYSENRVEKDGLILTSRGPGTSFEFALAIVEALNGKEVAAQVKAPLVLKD
UniProt Q92598: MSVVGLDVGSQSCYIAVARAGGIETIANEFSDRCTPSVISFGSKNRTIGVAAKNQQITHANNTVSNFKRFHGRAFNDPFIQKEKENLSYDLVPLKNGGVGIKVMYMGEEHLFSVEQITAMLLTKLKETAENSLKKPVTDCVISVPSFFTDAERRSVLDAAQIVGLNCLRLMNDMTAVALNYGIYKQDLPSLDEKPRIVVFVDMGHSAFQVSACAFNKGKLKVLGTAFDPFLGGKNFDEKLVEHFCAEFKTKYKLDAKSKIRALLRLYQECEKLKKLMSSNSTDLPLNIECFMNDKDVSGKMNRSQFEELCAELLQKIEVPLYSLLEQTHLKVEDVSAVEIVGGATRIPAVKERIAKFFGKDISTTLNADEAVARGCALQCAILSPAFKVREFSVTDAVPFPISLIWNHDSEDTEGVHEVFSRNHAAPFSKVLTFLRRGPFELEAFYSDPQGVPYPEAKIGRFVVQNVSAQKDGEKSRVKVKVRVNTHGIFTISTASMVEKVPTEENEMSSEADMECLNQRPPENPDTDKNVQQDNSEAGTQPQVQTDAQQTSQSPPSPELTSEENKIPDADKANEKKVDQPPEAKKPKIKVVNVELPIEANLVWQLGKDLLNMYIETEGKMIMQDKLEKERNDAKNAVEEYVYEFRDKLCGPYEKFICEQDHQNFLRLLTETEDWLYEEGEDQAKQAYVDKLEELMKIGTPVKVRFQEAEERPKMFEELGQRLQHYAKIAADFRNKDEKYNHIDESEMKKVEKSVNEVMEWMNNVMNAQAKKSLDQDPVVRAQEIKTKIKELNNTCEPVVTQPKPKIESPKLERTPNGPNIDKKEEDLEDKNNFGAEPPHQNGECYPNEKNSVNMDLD
UniProt P38646, residues 47-679: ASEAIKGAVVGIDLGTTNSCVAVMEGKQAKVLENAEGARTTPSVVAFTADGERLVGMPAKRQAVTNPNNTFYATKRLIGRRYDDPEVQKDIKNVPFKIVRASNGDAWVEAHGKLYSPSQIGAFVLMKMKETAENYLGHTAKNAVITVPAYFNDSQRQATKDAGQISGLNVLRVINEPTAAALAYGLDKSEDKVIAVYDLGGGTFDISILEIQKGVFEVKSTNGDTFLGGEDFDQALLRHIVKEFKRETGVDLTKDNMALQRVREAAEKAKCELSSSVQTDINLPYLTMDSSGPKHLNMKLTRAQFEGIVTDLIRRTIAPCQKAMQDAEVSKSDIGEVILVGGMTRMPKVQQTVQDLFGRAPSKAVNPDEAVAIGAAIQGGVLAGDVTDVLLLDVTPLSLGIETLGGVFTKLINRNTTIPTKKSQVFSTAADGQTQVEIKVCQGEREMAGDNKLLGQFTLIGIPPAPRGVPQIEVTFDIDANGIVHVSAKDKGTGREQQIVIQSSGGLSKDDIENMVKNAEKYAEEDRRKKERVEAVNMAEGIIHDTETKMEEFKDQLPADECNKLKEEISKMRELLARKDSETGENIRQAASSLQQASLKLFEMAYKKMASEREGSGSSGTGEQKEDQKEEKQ
UniProt P37198: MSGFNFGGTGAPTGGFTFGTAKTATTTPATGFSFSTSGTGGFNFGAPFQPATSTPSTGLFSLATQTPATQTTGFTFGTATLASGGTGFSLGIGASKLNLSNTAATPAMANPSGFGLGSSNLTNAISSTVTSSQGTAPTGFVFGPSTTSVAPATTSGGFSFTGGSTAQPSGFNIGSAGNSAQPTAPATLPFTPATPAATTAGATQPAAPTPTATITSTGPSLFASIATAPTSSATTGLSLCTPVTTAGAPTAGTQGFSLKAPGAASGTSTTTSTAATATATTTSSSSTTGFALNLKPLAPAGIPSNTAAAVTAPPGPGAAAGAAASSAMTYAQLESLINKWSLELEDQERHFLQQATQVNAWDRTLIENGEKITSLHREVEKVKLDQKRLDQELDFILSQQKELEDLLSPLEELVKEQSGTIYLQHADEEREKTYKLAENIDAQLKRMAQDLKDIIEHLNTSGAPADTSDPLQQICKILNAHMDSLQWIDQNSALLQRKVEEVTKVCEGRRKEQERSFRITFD
UniProt P0DMV8: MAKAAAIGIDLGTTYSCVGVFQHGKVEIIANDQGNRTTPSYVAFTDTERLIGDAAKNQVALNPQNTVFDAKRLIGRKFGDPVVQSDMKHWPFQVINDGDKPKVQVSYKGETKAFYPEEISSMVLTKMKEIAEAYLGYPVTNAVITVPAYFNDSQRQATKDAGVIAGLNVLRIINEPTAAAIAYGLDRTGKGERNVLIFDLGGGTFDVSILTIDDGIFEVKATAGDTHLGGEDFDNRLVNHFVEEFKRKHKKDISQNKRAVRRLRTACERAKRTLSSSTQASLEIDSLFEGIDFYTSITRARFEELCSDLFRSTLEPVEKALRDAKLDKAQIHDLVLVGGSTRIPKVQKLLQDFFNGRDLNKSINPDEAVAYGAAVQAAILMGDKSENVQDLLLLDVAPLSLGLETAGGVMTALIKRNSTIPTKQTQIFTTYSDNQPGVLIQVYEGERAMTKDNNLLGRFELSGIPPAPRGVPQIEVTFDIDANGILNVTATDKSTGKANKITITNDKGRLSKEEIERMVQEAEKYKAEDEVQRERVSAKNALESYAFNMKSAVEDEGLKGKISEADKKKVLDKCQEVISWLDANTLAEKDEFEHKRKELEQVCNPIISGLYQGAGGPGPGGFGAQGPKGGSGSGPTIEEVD

FLAG-tagged PARK7 [3] = target: FLAG-tagged PARK7 (UniProt Q99497); remark: listed apart in the source
[4] = target: FLAG-tagged MAP2K1 (MEK1) (UniProt Q02750)

binding (FLAG-tagged PARK7 [1]): binds
Molecule: heat shock protein 105 kDa (HSPH1) (from UniProt Q92598 1-858)

Molecule: mitochondrial HSP70 – HSPA9 (GRP/mtHSP70/mortalin) (from UniProt P38646 47-679)
binding (FLAG-tagged PARK7 [1]): binds

binding (FLAG-tagged PARK7 [1]): binds
Molecule: nucleoporin 62 (NUP62) (from UniProt P37198 1-522)

binding (FLAG-tagged PARK7 [1]): binds
Molecule: heat shock 70 kDa protein 1A (HSPA1A) (from UniProt P0DMV8 1-641)

B1: PMPCA (protein, UniProt Q10713 34-525)
chain: SSGGAYPNIPLSSPLPGVPKPVFATVDGQEKFETKVTTLDNGLRVASQNKFGQFCTVGILINSGSRYEAKYLSGIAHFLEKLAFSSTARFDSKDEILLTLEKHGGICDCQTSRDTTMYAVSADSKGLDTVVALLADVVLQPRLTDEEVEMTRMAVQFELEDLNLRPDPEPLLTEMIHEAAYRENTVGLHRFCPTENVAKINREVLHSYLRNYYTPDRMVLAGVGVEHEHLVDCARKYLLGVQPAWGSAEAVDIDRSVAQYTGGIAKLERDMSNVSLGPTPIPELTHIMVGLESCSFLEEDFIPFAVLNMMMGGGGSFSAGGPGKGMFSRLYLNVLNRHHWMYNATSYHHSYEDTGLLCIHASADPRQVREMVEIITKEFILMGGTVDTVELERAKTQLTSMLMMNLESRPVIFEDVGRQVLATRSRKLPHELCTLIRNVKPEDVKRVASKMLRGKPAVAALGDLTDLPTYEHIQTALSSKDGRLPRTYRLFR
binding [2]: binds

B2: ACAT1, acetyl-CoA acetyltransferase 1 (enzyme, UniProt P24752 34-427)
chain: VSKPTLKEVVIVSATRTPIGSFLGSLSLLPATKLGSIAIQGAIEKAGIPKEEVKEAYMGNVLQGGEGQAPTRQAVLGAGLPISTPCTTINKVCASGMKAIMMASQSLMCGHQDVMVAGGMESMSNVPYVMNRGSTPYGGVKLEDLIVKDGLTDVYNKIHMGSCAENTAKKLNIARNEQDAYAINSYTRSKAAWEAGKFGNEVIPVTVTVKGQPDVVVKEDEEYKRVDFSKVPKLKTVFQKENGTVTAANASTLNDGAAALVLMTADAAKRLNVTPLARIVAFADAAVEPIDFPIAPVYAASMVLKDVGLKKEDIAMWEVNEAFSLVVLANIKMLEIDPQKVNINGGAVSLGHPIGMSGARIVGHLTHALKQGEYGLASICNGGGGASAMLIQKL
binding [2]: binds

binding (FLAG-tagged PARK7 [3]): binds
B3: ferredoxin reductase (FXDR) (enzyme, UniProt P22570 33-491)
chain: STQEKTPQICVVGSGPAGFYTAQHLLKHPQAHVDIYEKQPVPFGLVRFGVAPDHPEVKNVINTFTQTAHSGRCAFWGNVEVGRDVTVPELREAYHAVVLSYGAEDHRALEIPGEELPGVCSARAFVGWYNGLPENQELEPDLSCDTAVILGQGNVALDVARILLTPPEHLERTDITKAALGVLRQSRVKTVWLVGRRGPLQVAFTIKELREMIQLPGARPILDPVDFLGLQDKIKEVPRPRKRLTELLLRTATEKPGPAEAARQASASRAWGLRFFRSPQQVLPSPDGRRAAGVRLAVTRLEGVDEATRAVPTGDMEDLPCGLVLSSIGYKSRPVDPSVPFDSKLGVIPNVEGRVMDVPGLYCSGWVKRGPTGVIATTMTDSFLTGQMLLQDLKAGLLPSGPRPGYAAIQALLSSRGVRPVSFSDWEKLDAEEVARGQGTGKPREKLVDPQEMLRLLGH

binding [4]: no binding
B4: Myotubularin-related protein 14 (MTMR14) (protein, UniProt Q8NCE2 1-650)
chain: MAGARAAAAAASAGSSASSGNQPPQELGLGELLEEFSRTQYRAKDGSGTGGSKVERIEKRCLELFGRDYCFSVIPNTNGDICGHYPRHIVFLEYESSEKEKDTFESTVQVSKLQDLIHRSKMARCRGRFVCPVILFKGKHICRSATLAGWGELYGRSGYNYFFSGGADDAWADVEDVTEEDCALRSGDTHLFDKVRGYDIKLLRYLSVKYICDLMVENKKVKFGMNVTSSEKVDKAQRYADFTLLSIPYPGCEFFKEYKDRDYMAEGLIFNWKQDYVDAPLSIPDFLTHSLNIDWSQYQCWDLVQQTQNYLKLLLSLVNSDDDSGLLVHCISGWDRTPLFISLLRLSLWADGLIHTSLKPTEILYLTVAYDWFLFGHMLVDRLSKGEEIFFFCFNFLKHITSEEFSALKTQRRKSLPARDGGFTLEDICMLRRKDRGSTTSLGSDFSLVMESSPGATGSFTYEAVELVPAGAPTQAAWRKSHSSSPQSVLWNRPQPSEDRLPSQQGLAEARSSSSSSSNHSDNFFRMGSSPLEVPKPRSVDHPLPGSSLSTDYGSWQMVTGCGSIQERAVLHTDSSLPFSFPDELPNSCLLAALSDRETRLQEVRSAFLAAYSSTVGLRAVAPSPSGAIGGLLEQFARGVGLRSISSNAL

binding [4]: binds
B5: CDC37 (protein, UniProt Q16543 1-378)
chain: MVDYSVWDHIEVSDDEDETHPNIDTASLFRWRHQARVERMEQFQKEKEELDRGCRECKRKVAECQRKLKELEVAEGGKAELERLQAEAQQLRKEERSWEQKLEEMRKKEKSMPWNVDTLSKDGFSKSMVNTKPEKTEEDSEEVREQKHKTFVEKYEKQIKHFGMLRRWDDSQKYLSDNVHLVCEETANYLVIWCIDLEVEEKCALMEQVAHQTIVMQFILELAKSLKVDPRACFRQFFTKIKTADRQYMEGFNDELEAFKERVRGRAKLRIEKAMKEYEEEERKKRLGPGGLDPVEVYESLPEELQKCFDVKDVQMLQDAISKMDPTDAKYHMQRCIDSGLWVPNSKASEAKEGEEAGPGDPLLEAVPKTGDEKDVSV

binding [4]: no binding
B6: MOB kinase activator 2 (MOB2) (protein, UniProt Q70IA6 1-237)
chain: MDWLMGKSKAKPNGKKPAAEERKAYLEPEHTKARITDFQFKELVVLPREIDLNEWLASNTTTFFHHINLQYSTISEFCTGETCQTMAVCNTQYYWYDERGKKVKCTAPQYVDFVMSSVQKLVTDEDVFPTKYGREFPSSFESLVRKICRHLFHVLAHIYWAHFKETLALELHGHLNTLYVHFILFAREFNLLDPKETAIMDDLTEVLCSGAGGVHSGGSGDGAGSGGPGAQNHVKER

B7: β-MPP (PMPCB) (protein, UniProt O75439 44-489)
chain: STQAATQVVLNVPETRVTCLESGLRVASEDSGLSTCTVGLWIDAGSRYENEKNNGTAHFLEHMAFKGTKKRSQLDLELEIENMGAHLNAYTSREQTVYYAKAFSKDLPRAVEILADIIQNSTLGEAEIERERGVILREMQEVETNLQEVVFDYLHATAYQNTALGRTILGPTENIKSISRKDLVDYITTHYKGPRIVLAAAGGVSHDELLDLAKFHFGDSLCTHKGEIPALPPCKFTGSEIRVRDDKMPLAHLAIAVEAVGWAHPDTICLMVANTLIGNWDRSFGGGMNLSSKLAQLTCHGNLCHSFQSFNTSYTDTGLWGLYMVCESSTVADMLHVVQKEWMRLCTSVTESEVARARNLLKTNMLLQLDGSTPICEDIGRQMLCYNRRIPIPELEARIDAVNAETIREVCTKYIYNRSPAIAAVGPIKQLPDFKQIRSNMCWLRD
binding [2]: binds

From article doi:10.1101/2024.10.17.618419
